Microarray screen: hit calls

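Compounds were printed on reactive glass slides in duplicate spots, a dye-labelled oligonucleotide was laid over them, and the fluorescence left after washing was read. For the PreQ1, TPP and SAM-II riboswitches the laboratory earlier reported (doi:10.1038/s41467-019-09493-3) 1 µM RNA, 2 h, and a rule that included a mean Z-score above 3 (spot signal-to-noise against the whole library), a score well above that on a control array, and duplicate spots agreeing (coefficient of variation under 100). The data file gives only the calls; its cut-offs may differ, and compounds hitting several targets are kept. The calls come from the array alone, and fixing a compound to the slide can hide its binding.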 “1” means called a hit, “0” means screened and not called a hit. This is an unselected part of the compounds tested. A target missing from an entry has no call listed here. A dash means that no call is listed here.

Targets (5′ to 3′):
TPP: TPP riboswitch RNA three-way junction, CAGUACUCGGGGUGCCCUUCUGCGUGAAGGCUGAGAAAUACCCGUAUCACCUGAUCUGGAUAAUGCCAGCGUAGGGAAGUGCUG. About 24,000 compounds screened, about 160 hits.
PreQ1: PreQ1 riboswitch RNA pseudoknot, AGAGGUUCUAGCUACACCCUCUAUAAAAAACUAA. From B. subtilis. About 24,000 compounds screened, about 170 hits.
SAM-II: SAM-II riboswitch RNA pseudoknot, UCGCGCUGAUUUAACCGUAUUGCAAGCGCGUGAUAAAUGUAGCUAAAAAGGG. About 21,000 compounds screened, about 200 hits.

| compound | TPP | PreQ1 | SAM-II |
|---|---|---|---|
| `O=C(N[C@@H]1c2ccccc2C[C@@H]1O)c1ccc(CN2CCCCC2)cc1` | 0 | 0 | 0 |
| `O=C1c2c(O)cc(O)cc2OC(c2ccc(O)c(O)c2)C1O` (stereo not shown) | 0 | 0 | 0 |
| `OC(COc1ccc2ccccc2c1)CN1CCN(c2ccc(F)cc2)CC1` (stereo not shown) | 0 | 0 | 0 |
| `Cc1cccc(N2CCN(CC(=O)N3C[C@@H](CN(C)C)[C@@H](CO)C3)CC2)c1` | 0 | 0 | 0 |
| `CN(C)c1ccc(-c2nc3cnccn3c2Nc2ccc3c(c2)OCCO3)cc1` | 0 | 0 | 0 |
| `Cc1n[nH]c(N)c1-c1ccccc1` | 0 | 0 | 0 |
| `Cc1cc(Nc2ccc(C)c(Br)c2)n2ncnc2n1` | 0 | 0 | 0 |
| `N[C@@H]1CC[C@@H](NC(=O)c2ccc(-c3ccccc3)[nH]2)C1` | 0 | 0 | 0 |
| `CC(=O)NCCn1cnc(-c2ccccc2)c1-c1ccccc1OCCO` | 0 | 0 | 0 |
| `CCn1cnc2cc(NCc3cccc(Br)c3)ccc21` | 0 | 0 | 0 |
| `Cn1c(N2CC[C@H](O)C2)nc2cc(C(=O)NCCCn3cncn3)ccc21` | 0 | 0 | 0 |
| `Cc1nc(C(C)C)ncc1C(=O)N1CCC2(CC1)NCCNC2=O` | 0 | 0 | 0 |
| `CCCCNc1nc2c(S(=O)(=O)c3ccc(C)cc3)nnn2c2ccccc12` | 0 | 0 | 0 |
| `N#Cc1nc(C=Cc2ccc(F)cc2)oc1NCCCn1ccnc1` | 0 | 0 | - |
| `Cl.c1ccc(Cc2ccccc2OC2CCNCC2)cc1` | 0 | 0 | 0 |
| `O=C1CC(Nc2ccc3c(c2)OCO3)C(=O)N1c1ccccc1` (stereo not shown) | 0 | 0 | 0 |
| `Nc1nonc1C(=O)N1CCN(C(=O)Nc2ccccc2)CC1` | 0 | 0 | - |
| `Cc1nn(C)c(N)c1-c1ccccc1` | 0 | 0 | 0 |
| `CC(C)Oc1cc(-c2cc(NCCO)nc3[nH]ccc23)nc(N)n1` | 0 | 0 | 0 |
| `Cc1ccc(C)c(Cn2c(C(C)O)nc3ccccc32)c1` (stereo not shown) | 0 | 0 | - |
| `CN(C)c1nc2c(c(N3CCC(O)CC3)n1)CN(C(=O)c1cnn[nH]1)CC2` | 0 | 0 | 0 |
| `O=C(O)c1cccc(Nc2nc3ccc(Cl)cc3n3cnnc23)c1` | 0 | 0 | - |
| `O=C(c1cccnc1)c1cc(-c2ccccn2)c(=O)n2ccccc12` | 0 | 0 | 0 |
| `Cc1nc[nH]c1C(=O)N[C@H]1CC[C@H]1NC1CCN(CCc2ccccc2)CC1` | 0 | 0 | 0 |
| `CN(C)CCNc1ncnc2c1c(-c1ccccc1)cn2-c1ccccc1Cl` | 0 | 0 | - |
| `O=S(=O)(NCCNCC=Cc1ccc(Br)cc1)c1cccc2cnccc12` | 0 | 0 | 0 |
| `CCOc1ccc(NC(=O)C(=O)NCC(C)O)cc1` (stereo not shown) | 0 | 0 | 0 |
| `CC(=O)c1cccc(-c2nc(CC3CCN(C)CC3)nn2CCO)c1` | 0 | 0 | 0 |
| `COc1ccc(C(c2c(NC(C)=O)sc3c2CCCC3)N2CCN(CCO)CC2)cc1OC` (stereo not shown) | 0 | 0 | 0 |
| `CCc1ccc(OCCn2c(CO)nc3ccccc32)cc1` | 0 | 0 | 0 |
| `N#Cc1c(N)n(-c2ccccc2)c2nc3ccccc3nc12` | 0 | 0 | 0 |
| `CN(CCNc1nc(CCN)nc2ccccc12)S(C)(=O)=O` | 0 | 0 | 0 |
| `Cc1cccc(C(=O)N2CCN(C(=O)c3nonc3N)CC2)c1` | 0 | 0 | - |
| `COc1cccc(CC(C)NC2CCN(S(C)(=O)=O)CC2)c1` (stereo not shown) | 0 | 0 | 0 |
| `Cc1ccc(NC(=O)c2c(N)sc(-c3ccccc3)c2C)c(C)c1` | 0 | 0 | 0 |
| `N[C@H]1CN(C(=O)c2ccc(-c3cc[nH]n3)cc2)C[C@@H]1C1CC1` | 0 | 0 | 0 |
| `CCN1Cc2nc(OC)c(CNC(=O)CC3COCCN3)cc2C1=O` (stereo not shown) | 0 | 0 | 0 |
| `COc1ccc(-c2nnc3c4ccccc4c(C)nn23)cc1S(=O)(=O)N1CCN(CCO)CC1` | 0 | 0 | 0 |
| `O=C1CCC[C@@H]2[C@H]3CCCN4CCC[C@@H](CN12)[C@@H]34` | 0 | 0 | 0 |
| `CCCN(CCC)c1nc(N)nc(-c2noc(C)n2)n1` | 0 | 0 | 0 |
| `Fc1ccc(Nc2c(-c3c[nH]c4ccccc34)nc3ccccn23)cc1` | 0 | 0 | 0 |
| `Cc1nc(-c2nc(COc3cccc(F)c3)nn2CCO)cs1` | 0 | 0 | 0 |
| `CNc1ccc(C(=O)Nc2nc3c(s2)CCCC3)cc1[N+](=O)[O-]` | 0 | 0 | 0 |
| `COc1cc2c(cc1C=C1C(C)=C(C#N)c3nc(N)c(C#N)c(C)c31)OCO2` | 0 | 0 | 0 |
| `CC(=O)N[C@@H]1CN(C[C@H]2[C@@H]3CNC[C@@H]32)C[C@H]1c1ccc(C)cc1` | 0 | 0 | 0 |
| `Cc1nnc(-n2cccc2)s1` | 0 | 0 | 0 |
| `Clc1ccc(-c2noc3ncnc(NCCN4CCOCC4)c23)cc1` | 0 | 0 | 0 |
| `CCOC(=O)c1c(C)oc2ncnc(Nc3ccc(C)cc3Cl)c12` | 0 | 0 | 0 |
| `OCCO[C@H]1C[C@@H](O)C12CCN(Cc1ccc(Cl)s1)CC2` | 0 | 0 | 0 |
| `O=C1c2ccccc2C(Nc2ccccc2Br)N1c1cccnc1` (stereo not shown) | 0 | 0 | 0 |
| `Cc1cnn(C2CCCC2)c1NC(=O)N[C@@H]1c2ccccc2C[C@@H]1O` | 0 | 0 | 0 |
| `CC1=C(C(=O)O)N2C(=O)[C@@H](NC(=O)[C@H](N)C3=CCC=CC3)[C@H]2SC1` | 0 | 0 | 0 |
| `COCCCNC1=CC(=O)CC(c2ccccc2)C1` (stereo not shown) | 0 | 0 | 0 |
| `CNc1ccc(C(=O)Nc2nc(C(C)(C)C)cs2)cc1[N+](=O)[O-]` | 0 | 0 | 0 |
| `Cc1cc(C)n2ncc(-c3cc(-c4c(C)nn(C)c4C)nc(N)c3C#N)c2n1` | 0 | 0 | 0 |
| `CC(C)(C)C(N)Cn1ccnc1` (stereo not shown) | 0 | 0 | 0 |
| `Nc1ccc(-n2cnnc2)cc1` | 0 | 0 | 0 |
| `CCc1ccc(CNCCc2c[nH]c3ccccc23)cc1` | 0 | 0 | 0 |
| `O=C(CO)N[C@H]1CN(CCC(F)(F)F)C[C@@H]1c1ccccc1` | 0 | 0 | 0 |
| `CC1=C(c2ccc(C)cc2)S(=O)(=O)N=C1Nc1ccc2c(c1)OCO2` | 0 | 0 | - |
| `Cn1cnc([N+](=O)[O-])c1S(=O)(=O)Oc1cccc2ccccc12` | 0 | 0 | 0 |
| `COc1sc(SC)cc1C=NNC(=O)c1nnn(-c2nonc2N)c1C` | 0 | 0 | 0 |
| `CSc1nc(=O)cc(Cl)[nH]1` | 0 | 0 | 0 |
| `C=CCNc1ncccc1-c1nc(-c2ccc(C)cc2)no1` | 0 | 0 | - |
| `COc1cc(C2C(C#N)=C(N)OC3=C2C(=O)CCC3)ccc1O` (stereo not shown) | 0 | 0 | 0 |
| `COc1ccc(-c2n[nH]c3c2C2(C(=O)Nc4ccc(C)c(Br)c42)C(C#N)=C(N)O3)cc1` (stereo not shown) | 0 | 0 | 0 |
| `c1cncc(-c2nc3c(c(NCC4COc5ccccc5O4)n2)CCNC3)c1` (stereo not shown) | 1 | 0 | 1 |
| `COc1ccc(NCc2nc3ccccc3n2CCOc2ccccc2)cc1` | 0 | 0 | 0 |
| `CN(C)c1ccc(NC2=C(C(N)=O)S(=O)(=O)c3ccccc32)cc1` | 0 | 0 | - |
| `COc1ccc(-c2nc(C(=O)NCCO)nn2-c2ccccc2)cc1` | 0 | 0 | - |
| `CCCCc1nc(CN2C[C@@H](CN(C)C)C[C@H](CO)C2)c(Cl)[nH]1` | 0 | 0 | 0 |
| `Nc1nc(O)cc(-c2cc3ccccc3o2)n1` | 0 | 0 | 0 |
| `OC(COc1ccccc1)Cn1cnc2ccccc21` (stereo not shown) | 0 | 0 | - |
| `COc1ccc(NC(=O)c2cc3ccc4c5ccccc5[nH]c4c3cc2O)cc1` | 0 | 0 | 0 |
| `COc1ccc(CNCCC(c2ccccc2)c2ccco2)cc1` (stereo not shown) | 0 | 0 | 0 |

9 of the entries, repeated:

{"compound": "COc1cc2c(cc1C=C1C(C)=C(C#N)c3nc(N)c(C#N)c(C)c31)OCO2", "TPP": "0", "PreQ1": "0", "SAM-II": "0"}
{"compound": "O=S(=O)(NCCNCC=Cc1ccc(Br)cc1)c1cccc2cnccc12", "TPP": "0", "PreQ1": "0", "SAM-II": "0"}
{"compound": "CSc1nc(=O)cc(Cl)[nH]1", "TPP": "0", "PreQ1": "0", "SAM-II": "0"}
{"compound": "CC(=O)N[C@@H]1CN(C[C@H]2[C@@H]3CNC[C@@H]32)C[C@H]1c1ccc(C)cc1", "TPP": "0", "PreQ1": "0", "SAM-II": "0"}
{"compound": "Cc1ccc(C)c(Cn2c(C(C)O)nc3ccccc32)c1", "stereo": "stereo not shown", "TPP": "0", "PreQ1": "0"}
{"compound": "CC(C)Oc1cc(-c2cc(NCCO)nc3[nH]ccc23)nc(N)n1", "TPP": "0", "PreQ1": "0", "SAM-II": "0"}
{"compound": "O=C(O)c1cccc(Nc2nc3ccc(Cl)cc3n3cnnc23)c1", "TPP": "0", "PreQ1": "0"}
{"compound": "Cc1cnn(C2CCCC2)c1NC(=O)N[C@@H]1c2ccccc2C[C@@H]1O", "TPP": "0", "PreQ1": "0", "SAM-II": "0"}
{"compound": "Nc1nc(O)cc(-c2cc3ccccc3o2)n1", "TPP": "0", "PreQ1": "0", "SAM-II": "0"}

Data from the ROBIN nucleic acid binder screens, doi:10.1002/anie.202211358.